Experimental data published in US20040043420A1, “Method of identifying conformation-sensitive binding peptides and uses thereof” (priority 2003, published 2004).
These are yes or no findings as the source states them, for the method shown. Some entries that bind do so weakly or less than the wild type.

Protein sequences, listed by entry. Tags and fused reporters are not part of them.
UniProt Q92731: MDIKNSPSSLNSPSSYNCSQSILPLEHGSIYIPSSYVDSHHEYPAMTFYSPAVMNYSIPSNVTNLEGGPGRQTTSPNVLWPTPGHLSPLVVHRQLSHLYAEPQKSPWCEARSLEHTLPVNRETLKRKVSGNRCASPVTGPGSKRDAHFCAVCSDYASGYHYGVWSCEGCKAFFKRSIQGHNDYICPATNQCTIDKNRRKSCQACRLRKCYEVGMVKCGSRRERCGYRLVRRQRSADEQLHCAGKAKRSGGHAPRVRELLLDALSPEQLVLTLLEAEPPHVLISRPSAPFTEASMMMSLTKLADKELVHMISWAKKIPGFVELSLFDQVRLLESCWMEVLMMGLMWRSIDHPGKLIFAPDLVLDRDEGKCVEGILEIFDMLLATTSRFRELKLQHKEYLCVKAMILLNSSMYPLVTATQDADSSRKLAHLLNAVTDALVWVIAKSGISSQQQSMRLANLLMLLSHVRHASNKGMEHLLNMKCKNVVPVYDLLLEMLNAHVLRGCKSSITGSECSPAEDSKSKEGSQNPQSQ

B1: 1T-β (peptide)
peptide: SSVFTIMDGKVALSR
B2: 2T-β (peptide)
peptide: SRPYCLGDVWCLDSR
B3: 5T-β (peptide)
peptide: SSWNSREFFLSQLSR
B4: 6T-β (peptide)
peptide: SSTTMFDFFYERLSR
B5: 7T-β (peptide)
peptide: SSARPWWLQFEGSSR
B6: 8T-β (peptide)
peptide: SSQEEWLLPWRLASR
B7: 10T-β (peptide)
peptide: SSGPFYVGGMLWPADCLSR
B8: 12T-β (peptide)
peptide: SREGWMGPWRLADSR
B9: 13T-β (peptide)
peptide: SRNECIGPWCLTISR
B10: 15T-β (peptide)
peptide: SSVASREWWVRELSR
B11: 16T-β (peptide)
peptide: SRMFQVCGDEVCLRSR
B12: 17T-β (peptide)
peptide: SSDLHRDCLGVWCLSR
B13: 18T-β (peptide)
peptide: SRLNGVFCHDSSDLWVCSR
B14: 20T-β (peptide)
peptide: SRPGCLRGVWCLADTPPSR
B15: 21T-β (peptide)
peptide: SSRLVPHSFWLDGLMHGSR
B16: 22T-β (peptide)
peptide: SSISTYHMGEWFYAMLSSR
B17: 23T-β (peptide)
peptide: SSDLYSQMREFFQINLSR
B18: 1E-β (peptide)
peptide: SSRGLLWDLLTKDSR
B19: 2E-β (peptide)
peptide: SRHGILWDLLQGDSR
B20: 3E-β (peptide)
peptide: SRLHDLLLRDESPSR
B21: 4E-β (peptide)
peptide: SRDWRSGFLYELLSR
B22: 5E-β (peptide)
peptide: SSDTRSRLYELLSSSYTSR
B23: 6E-β (peptide)
peptide: SRLEELLRVGVLTSR
B24: 7E-β (peptide)
peptide: SRLEDLLRGDSKPQSR
B25: 8E-β (peptide)
peptide: SSPTGHRLLESLLLNSNSR
B26: 9E-β (peptide)
peptide: SSILERLLGGGSAETV
B27: 10E-β (peptide)
peptide: SRSPILWHLLQDGSR
B28: 11E-β (peptide)
peptide: SSRTPILFSLLETSR
B29: 12E-β (peptide)
peptide: SSIKDFPNLISLLSR
B30: 13E-β (peptide)
peptide: SSGSSAGRLMMLLQDGVSR
B31: 14E-β (peptide)
peptide: SREGLLMRLLIGDSR
B32: 15E-β (peptide)
peptide: SSHCHTRLCSLLTSR
B33: 16E-β (peptide)
peptide: SSRLLCLLDAGQCSR
B34: 17E-β (peptide)
peptide: SRNLLCLLDQEACSR
B35: 18E-β (peptide)
peptide: SSLKCLLNSNFCSR
B36: 19E-β (peptide)
peptide: SSLKCLLQSSPQKQPFCSR
B37: 20E-β (peptide)
peptide: SSRTLLEHYLLGGSR
B38: 21E-β (peptide)
peptide: SSAGLLEDMLRSRSR
B39: 22E-β (peptide)
peptide: SSRCSSLLCEMLIQTKESR
B40: 23E-β (peptide)
peptide: SSLQAGSWLMHYLRGGDSR
B41: 24E-β (peptide)
peptide: SRPEGSSWLLHYLSR
B42: 26E-β (peptide)
peptide: SRWWLDDHELLLYSSR
B43: 27E-β (peptide)
peptide: SSRTLYCHLTSSNPEWCSR
B44: 28E-β (peptide)
peptide: SSTRLMCWLGSADTSHCSR
B45: 29E-β (peptide)
peptide: SSYDWQCPSWYCPAPPSSR
B46: 30E-β (peptide)
peptide: SSTTWRCPEWYCGSR
B47: 31E-β (peptide)
peptide: SSWDFRVPWWYNNSR
B48: 32E-β (peptide)
peptide: SSQWQAPWWYIDASR
B49: 33E-β (peptide)
peptide: SSRPSFTIPWWFDDPSRSR
B50: 34E-β (peptide)
peptide: SSYEIPKWALQWLSR
B51: 1B-β (peptide)
peptide: SRLHCLLDSSYCSSR
B52: 3B-β (peptide)
peptide: SSWPNPTFWERQLSR
B53: 4B-β (peptide)
peptide: SYSKEWFEERLNSR
B54: 5B-β (peptide)
peptide: SSSMMREFFERELSR
B55: 6B-β (peptide)
peptide: SSGLPPNFERMLKSR
B56: 7B-β (peptide)
peptide: SSGPWLMHYLGGGSR
B57: 8B-β (peptide)
peptide: SSTSWLHHYLMGTSR
B58: 9B-β (peptide)
peptide: SRGGGECLGPWCLSR
B59: 14B-β (peptide)
peptide: SSQVWPGPWRLVESR
B60: 16B-β (peptide)
peptide: SSSLGPWRLSELESR
B61: 17B-β (peptide)
peptide: SSSGPWRWGLSIESR
B62: 18B-β (peptide)
peptide: SRECVGGWCLAELSR
B63: 19B-β (peptide)
peptide: SSIPPRSWWLSQLSR
B64: 20B-β (peptide)
peptide: SSWPGAEWFKEQLSR
B65: 23B-β (peptide)
peptide: HSYSSHPLLLSYLWGG
B66: 24B-β (peptide)
peptide: HSWLGPWRLSSIDLGG
B67: 25B-β (peptide)
peptide: HSTDMGWLRPWRLLGG

Biological target: T1, ER β (UniProt Q92731 1-530, limits assumed)
T1 construct: In vitro; also called estrogen receptor β; ERβ-ERE
Assay: phage isolated on ERβ-ERE; Tamoxifen

binding, binds:
B1
B2
B3
B4
B5
B6
B7
B8
B9
B10
B11
B12
B13
B14
B15
B16
B17

Biological target: T1, ER β
Assay: phage isolated on ERβ-ERE; Estradiol

binding, binds:
B18
B19
B20
B21
B22
B23
B24
B25
B26
B27
B28
B29
B30
B31
B32
B33
B34
B35
B36
B37
B38
B39
B40
B41
B42
B43
B44
B45
B46
B47
B48
B49
B50

Biological target: T1, ER β
Assay: phage isolated on ERβ-ERE; Buffer

binding, binds:
B51
B52
B53
B54
B55
B56
B57
B58
B59
B60
B61
B62
B63
B64
B65
B66
B67
